Reference: patent US9975854B2, “Benzomorphan analogs and use thereof” (Purdue Pharma L.P., priority 2014, dated 2018)
The match of structure and compound is tentative.

Protein sequences, listed by entry. Tags and fused reporters are not part of them.
UniProt P35372, whole entry: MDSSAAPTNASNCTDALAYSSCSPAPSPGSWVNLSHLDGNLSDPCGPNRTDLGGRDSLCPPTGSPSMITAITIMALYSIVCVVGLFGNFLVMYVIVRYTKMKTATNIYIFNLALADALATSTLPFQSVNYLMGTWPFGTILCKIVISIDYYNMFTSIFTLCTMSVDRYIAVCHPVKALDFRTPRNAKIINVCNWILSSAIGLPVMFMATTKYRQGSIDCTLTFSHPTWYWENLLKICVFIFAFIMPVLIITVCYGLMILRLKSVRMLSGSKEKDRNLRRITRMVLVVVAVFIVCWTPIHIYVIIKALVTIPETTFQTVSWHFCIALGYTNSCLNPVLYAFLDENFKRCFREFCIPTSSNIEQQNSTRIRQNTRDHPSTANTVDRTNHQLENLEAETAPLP

Biological target: μ-opioid receptor (Homo sapiens (Human), UniProt P35372)
Assay: μ-opioid receptor [35S]GTPγS functional assay, HEK-293 or CHO cells
Assay type: biochemical
Protocol: [^35S]GTPγS functional assays were conducted using freshly thawed μ-receptor membranes prepared in-house from a cell line expressing recombinant opioid receptor in a HEK-293, CHO or U-2 OS cell background, or purchased from a commercial source (Perkin Elmer, Shelton, Conn.; or DiscovRx, Fremont, Calif.). Assay reactions were prepared by sequentially adding the following reagents to binding buffer (100 mM NaCl, 10 mM MgCl2, 20 mM HEPES, pH 7.4) on ice (final concentrations indicated): membrane protein (0.026 mg/mL), saponin ([…]), GDP ([…]) and [^35S]GTPγS (0.20 nM; Perkin Elmer, Shelton, Conn.). The prepared membrane solution (190 μl/well) was transferred to 96-shallow well polypropylene plates containing 10 μl of 20× concentrated stock solutions of the agonist [D-Ala^2, N-methyl-Phe^4 Gly-ol^5]-enkephalin (DAMGO) prepared in dimethyl sulfoxide (DMSO). Plates were incubated for 30 min at about 25° C. with shaking. […] BetaScint scintillation cocktail (Perkin Elmer, Shelton, Conn.) was added (50 μl/well) and plates were counted using a Packard Top-Count for 1 min/well. Data were analyzed using the sigmoidal dose-response curve fitting functions in GraphPad PRISM v. […]
In TABLE 4, activity response of certain Compounds of the Invention to the μ- and κ-opioid receptors was determined as described above for functional assays using HEK-293 or CHO cells.

For `CC(C)S(=O)(=O)N1CCC(CN[C@H]2[C@H]3Cc4ccc(O)cc4[C@]2(C)CCN3C)CC1`, the EC50 (read-out: GTPγS μ EC50) was 0.854 µM and the “GTPγS μ Emax” value (relative to DAMGO) was 34.9 ± 1.2%.
